From patent US9527830B2 (Merck Sharp & Dohme Corp., priority 2011, dated 2016)
Some of these results come from one statement about several compounds together.

Biological target: T1, hROMK1 (Kir1.1) (Homo sapiens, UniProt P48048)
T1 construct: expressed in transfected cells
T1 sequence (P48048 1-391): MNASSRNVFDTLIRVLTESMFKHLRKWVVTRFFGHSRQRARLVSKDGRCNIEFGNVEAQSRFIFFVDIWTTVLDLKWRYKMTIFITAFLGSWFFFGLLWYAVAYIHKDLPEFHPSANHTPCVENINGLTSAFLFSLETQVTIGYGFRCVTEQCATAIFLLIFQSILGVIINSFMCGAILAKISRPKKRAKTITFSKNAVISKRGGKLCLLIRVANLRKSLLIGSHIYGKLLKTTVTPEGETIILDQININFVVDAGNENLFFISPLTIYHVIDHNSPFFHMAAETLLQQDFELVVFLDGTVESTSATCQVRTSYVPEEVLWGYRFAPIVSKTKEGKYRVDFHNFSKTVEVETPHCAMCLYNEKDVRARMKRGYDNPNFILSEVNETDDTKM
Assay: ^86Rb^+ Efflux Assay
Assay type: cell-based
Settings: CHO-DHFR- cells stably expressing hROMK1; potency ranges
Experimental: Several assays may be used to measure functional inhibition of the ROMK channel by compounds of the instant invention. One primary assay that can be used is a functional ^86Rb^+ efflux assay that measures the ability of ROMK to permeate ^86Rb^+, in the absence or presence of test compound. Under control conditions, cells loaded with ^86Rb^+ and incubated in Rb^+-free medium display a time-dependent efflux of the isotope, the rate of which depends on number of functional channels. When cells are incubated in the presence of a channel inhibitor, efflux of ^86Rb^+ is prevented in a concentration-dependent manner, and IC50 values of inhibition by compounds can be accurately determined. This assay has been established with cell lines expressing either human, rat or dog ROMK channels, and can operate in 96- or 384-well format. Importantly, the human, rat, and dog ^86Rb^+ efflux assays can be carried out in the presence of up to 100% serum allowing, therefore, an accurate estimation of the effect of protein binding on the inhibitory activity of compounds of interest. Another ROMK functional assay makes use of the ability of thallium to permeate through open ROMK channels and increase the fluorescence of a dye previously loaded into the cells. Under control conditions, cells loaded with dye and exposed to thallium-containing medium display a time-dependent increase in fluorescence, the rate of which depends on number of functional channels. When cells are incubated in the presence of a channel inhibitor, the increase in fluorescence is attenuated in a concentration-dependent manner, and IC50 values of inhibition by compounds can be accurately determined. This assay has been established with cell lines expressing either human, or rat ROMK channels, and operates in 384-well format. Another assay for evaluation of the compounds of the instant invention and for evaluation of mechanism of action of compounds of Formula I relies on the measurement of the electrical current that is generated as potassium permeates through the channel. For these electrophysiological experiments, three different platforms, IonWorks, QPatch, or manual patch clamp, are used, depending on the experimental protocol under consideration. IonWorks operates in a 384-well format and allows accurate determination of IC50 values for inhibitors.
CHO-DHFR-cells stably expressing hROMK1 (Kir1.1) were grown at 37° C. in a 10% CO2 humidified incubator in Iscove's Modified Dulbecco's Medium (Gibco 12440) supplemented with HT Supplement, Penicillin/Streptomycin/Glutamine, G418 (500 μg/ml) and 10% FBS. Cells were seeded in Sterile and Tissue Culture Treated Packard CulturPlate White Opaque Microplates at a concentration of 5.0E5-7.0E5 cells/ml—PerkinElmer 6005680 (96-well); Corning 3707 (384 well) in complete media containing 1.5 μCi/ml Rubidium-86. Cells were incubated in 37° C.-10% CO2 incubator overnight. On the day of the experiment, the media was removed and cells washed with low K assay buffer. ^86Rb^+ efflux was initiated after addition of assay buffer±test compound followed by 35 min incubation at room temperature. ROMK-sensitive component of efflux was defined in the presence of 10 mM BaCl2. Assay buffer was removed and transferred to a plate and cells were solubilized in the presence of SDS. Radioactivity associated with assay and cell plate was determined.
• 1. Removed cell media and washed cells with low K assay buffer (126.9 mM NaCl, 4.6 mM KCl, 2 mM CaCl2, 1 mM MgCl2, 10 mM Hepes/NaOH; pH 7.4) • 200 μl for 96-well plate; 70 μl for 384-well plate • 2. Added assay buffer (121.5 mM NaCl, 10 mM KCl, 2 mM CaCl2, 1 mM MgCl2, 10 mM Hepes/NaOH; pH 7.4)±test compound to cells • 100 μl for 96-well plate; 50 μl for 384-well plate • 3. Incubated at ambient temperature (22-24° C.) for 35 min • 4.

SMILES	IC50
O=C1OCc2c1ccc(/C=C\C1CCN(C(=O)Cc3ccc(-n4cnnn4)cc3)CC1)c2Br [Example 60, 4-Bromo-5-[(Z)-2-(1-{[4-(1H-tetrazol-1-yl)phenyl]acetyl}piperidin-4-yl)ethenyl]-2-benzofuran-1(3H)-one]	≤ 1.1 µM
N#Cc1ccc(CC(=O)N2CCC(CCc3ccc4c(c3)COC4=O)CC2)c(Cl)c1F [Example 61, 3-Chloro-2-fluoro-4-(2-oxo-2-{4-[2-(1-oxo-1,3-dihydro-2-benzofuran-5-yl)ethyl]piperidin-1-yl}ethyl)benzonitrile]	≤ 1.1 µM
COc1cc(CC(=O)N2CCC(COc3ccc4c(c3)COC4=O)CC2)ccc1C#N [Example 62, 2-Methoxy-4-[2-oxo-2-(4-{[(1-oxo-1,3-dihydro-2-benzofuran-5-yl)oxy]methyl}piperidin-1-yl)ethyl]benzonitrile]	≤ 1.1 µM
Cc1c(CC(=O)N2CCC(CCc3ccc4c(c3)COC4=O)CC2)ccc(C#N)c1F [Example 63, 2-Fluoro-3-methyl-4-(2-oxo-2-{4-[2-(1-oxo-1,3-dihydro-2-benzofuran-5-yl)ethyl]piperidin-1-yl}ethyl)benzonitrile]	≤ 1.1 µM
N#Cc1ccc(CC(=O)N2CCC(CCc3ccc4c(c3)COC4=O)CC2)cc1Br [Example 64, 2-Bromo-4-[2-oxo-2-[4-[2-(1-oxo-3H-isobenzofuran-5-yl)ethyl]-1-piperidyl]ethyl]benzonitrile]	≤ 1.1 µM
O=C1OCCc2cc(CCC3CCN(C(=O)Cc4ccc(-n5cnnn5)cc4)CC3)ccc21 [Example 65, 6-[2-(1-{[4-(1H-tetrazol-1-yl)phenyl]acetyl}piperidin-4-yl)ethyl]-3,4-dihydro-1H-isochromen-1-one]	≤ 1.1 µM
O=C1OCCc2cc(CCC3CCN(C(=O)C4CCc5cc(-n6cnnn6)ccc54)CC3)ccc21 (stereo not drawn) [Example 66]	≤ 1.1 µM
COc1cc(CC(=O)N2CCC(CCc3ccc4c(c3)CCOC4=O)CC2)c(F)cc1C#N [Example 67, 5-Fluoro-2-methoxy-4-(2-oxo-2-{4-[2-(1-oxo-3,4-dihydro-1H-isochromen-6-yl)ethyl]piperidin-1-yl}ethyl)benzonitrile]	≤ 1.1 µM
O=C1OCc2c1ccc(/C=C/C1CCN(C(=O)Cc3ccc(-n4cnnn4)cc3)CC1)c2Br [Example 68, 4-Bromo-5-[(E)-2-(1-{[4-(1H-tetrazol-1-yl)phenyl]acetyl}piperidin-4-yl)ethenyl]-2-benzofuran-1(3H)-one]	≤ 1.1 µM
O=C1OCc2cc(CCN3CCC(C(=O)Cc4ccc(-n5cnnn5)cc4)CC3)ccc21 [Example 69, 5-[2-(4-{[4-(1H-Tetrazol-1-yl)phenyl]acetyl}piperidin-1-yl)ethyl]-2-benzofuran-1(3H)-one]	≤ 1.1 µM
COc1cc(C#N)c(F)cc1CC(=O)N1CCC(CCc2ccc3c(c2)COC3=O)CC1 [Example 70, 2-Fluoro-5-methoxy-4-(2-oxo-2-{4-[2-(1-oxo-1,3-dihydro-2-benzofuran-5-yl)ethyl]piperidin-1-yl}ethyl)benzonitrile]	≤ 1.1 µM
COc1cc(CCN2CCC(CCc3ccc4c(c3)COC4=O)CC2)ccc1C#N [Example 71, 2-Methoxy-4-(2-{4-[2-(1-oxo-1,3-dihydro-2-benzofuran-5-yl)ethyl]piperidin-1-yl}ethyl)benzonitrile]	≤ 1.1 µM
O=C1OCc2cc(CCC3CCN(C(=O)C4CCc5cc(-n6cnnn6)ccc54)CC3)ccc21 (stereo not drawn) [Example 72, 5-[2(1-{[5(1H-Tetrazol-1-yl)-2,3-dihydro-1H-inden-yl]carbonyl}piperidin-4-yl)ethyl]-2-benzofuran-1(3H)-one]	≤ 1.1 µM
N#Cc1ccc(CCC(=O)N2CCC(Sc3ccc4c(c3)COC4=O)CC2)cc1F [Example 73, 2-Fluoro-4-(3-oxo-3-{4-[(1-oxo-1,3-dihydro-2-benzofuran-5-yl)sulfanyl]piperidin-1-yl}propyl)benzonitrile]	≤ 1.1 µM
COc1c(F)c(C#N)cc(F)c1CC(=O)N1CCC(CCc2ccc3c(c2)COC3=O)CC1 [Example 74, 2,5-Difluoro-3-methoxy-4-(2-oxo-2-{4-[2-(1-oxo-1,3-dihydro-2-benzofuran-5-yl)ethyl]piperidin-1-yl}ethyl)benzonitrile]	≤ 1.1 µM
O=C1OCc2cc(OCC(=O)N3CCC(Oc4ccc5c(c4)COC5=O)CC3)ccc21 [Example 75, 5-[(1-{[(1-Oxo-1,3-dihydro-2-benzofuran-5-yl)oxy]acetyl}piperidin-4-yl)oxy]-2-benzofuran-1(3H)-one]	≤ 1.1 µM
N#Cc1ccc(CCC(=O)N2CCC(Oc3ccc4c(c3)COC4=O)CC2)cc1F [Example 76, 2-Fluoro-4-(3-oxo-3-{4-[(1-oxo-1,3-dihydro-2-benzofuran-5-yl)oxy]piperidin-1-yl}propyl)benzonitrile]	≤ 1.1 µM
COc1c(CC(=O)N2CCC(CCc3ccc4c(c3)COC4=O)CC2)ccc(C#N)c1F [Example 77, 2-Fluoro-3-methoxy-4-(2-oxo-2-{4-[2-(1-oxo-1,3-dihydro-2-benzofuran-5-yl)ethyl]piperidin-1-yl}ethyl)benzonitrile]	≤ 1.1 µM
Cc1nc2cc(/C=C/C3CCN(C(=O)Cc4ccc(-n5cnnn5)cc4)CC3)ccc2c(=O)o1 [Example 78, 2-Methyl-7-[(E)-2-(1-{[4-(1H-tetrazol-1-yl)phenyl]acetyl}piperidin-4-yl)ethenyl]-4H-3,1-benzoxazin-4-one]	≤ 1.1 µM
CC1Cc2cc(/C=C/C3CCN(C(=O)Cc4ccc(-n5cnnn5)cc4)CC3)ccc2C(=O)O1 (stereo not drawn) [Example 79, 3-Methyl-6-[(E)-2-(1-{[4-(1H-tetrazol-1-yl)phenyl]acetyl}piperidin-4-yl)ethenyl]-3,4-dihydro-1H-isochromen-1-one]	≤ 1.1 µM
CC1Cc2cc(CCC3CCN(C(=O)Cc4ccc(-n5cnnn5)cc4)CC3)ccc2C(=O)O1 (stereo not drawn) [Example 80, 3-Methyl-6-[2-(1-{[4-(1H-tetrazol-1-yl)phenyl]acetyl}piperidin-4-yl)ethyl]-3,4-dihydro-1H-isochromen-1-one]	≤ 1.1 µM
CN(C)C1(CCc2ccc(F)c(C#N)c2)CCN(C(=O)Cc2ccc(-n3cnnn3)cc2)CC1 [Example 82, 5-{2-[4-(Dimethylamino)-1-{[4-(1H-tetrazol-1-yl)phenyl]acetyl}piperidin-4-yl]ethyl}-2-fluorobenzonitrile]	≤ 1.1 µM
Cc1cc(/C=C/C2CCN(CCc3ccc4c(c3)COC4=O)CC2)ccc1C#N [Example 83]	≤ 1.1 µM
N#Cc1ccc(/C=C/C2CCN(CCc3ccc4c(c3)COC4=O)CC2)cc1 [Example 84, 4-[(E)-2-{1-[2-(1-Oxo-1,3-dihydro-2-benzofuran-5-yl)ethyl]piperidin-4-yl}ethenyl]benzonitrile]	≤ 1.1 µM
